Data as given in publication PMC3778407, “Topochemical control of the photodimerization of aromatic compounds by γ-cyclodextrin thioethers in aqueous solution” (Beilstein Journal of Organic Chemistry, 2013).
Read-outs that look alike come from different tables or passages of the source. Marks after values point to notes of the source that are not given here.

Tests used:
[1] = design: method as in doi:10.1021/j100862a012; conditions: no host, cited from earlier work
[2] = Quantum yield of the photodimerization of COU; format: physicochemical
[3] = Quantum yield of the photodimerization of ANT in γ-CD thioether solution; format: physicochemical; conditions: 6.0 mM γ-CD thioether in water, λ = 350 nm, experimental error ± 5 %
[4] = Quantum yield of the photodimerization of ACE; format: physicochemical; conditions: host concentration 6 mM in water, λ = 300 nm, experimental error ±5%

Q: Which results are given for `C1=Cc2cccc3cccc1c23` [ACE, acenaphthylene]?
A: Quantum yield Φ of the photodimerization of free ACE ([1]; ethanol): 4%; Quantum yield Φ of the photodimerization of free ACE ([1]; toluene): 5%; Quantum yield Φ of the photodimerization of free ACE ([1]; water/methanol (methanol/water 20% v/v)): 3%

Q: For `O=c1ccc2ccccc2o1` [COU, coumarin], which “Quantum yield Φ of the photodimerization of COU” value (from here on “Quantum yield Φ … of COU”) ([2]; 15 mM aqueous solution of COU, no host) is on record?
A: The value was 0.11%.

Q: With `NCCSC[C@H]1O[C@@H]2O[C@H]3[C@H](O)[C@@H](O)[C@@H](O[C@H]4[C@H](O)[C@@H](O)[C@@H](O[C@H]5[C@H](O)[C@@H](O)[C@@H](O[C@H]6[C@H](O)[C@@H](O)[C@@H](O[C@H]7[C@H](O)[C@@H](O)[C@@H](O[C@H]8[C@H](O)[C@@H](O)[C@@H](O[C@H]9[C@H](O)[C@@H](O)[C@@H](O[C@H]1[C@H](O)[C@H]2O)O[C@@H]9CSCCN)O[C@@H]8CSCCN)O[C@@H]7CSCCN)O[C@@H]6CSCCN)O[C@@H]5CSCCN)O[C@@H]4CSCCN)O[C@@H]3CSCCN` [Host 1] as the molecule, how does the “Quantum yield Φ of the photodimerization of ANT” value (shortened to “Quantum yield Φ … of ANT”) [3] read?
A: Its value is 29%.

Q: Which “Quantum yield Φ … of ANT” value [3] does the source give for `O=C(O)CSC[C@H]1O[C@@H]2O[C@H]3[C@H](O)[C@@H](O)[C@@H](O[C@H]4[C@H](O)[C@@H](O)[C@@H](O[C@H]5[C@H](O)[C@@H](O)[C@@H](O[C@H]6[C@H](O)[C@@H](O)[C@@H](O[C@H]7[C@H](O)[C@@H](O)[C@@H](O[C@H]8[C@H](O)[C@@H](O)[C@@H](O[C@H]9[C@H](O)[C@@H](O)[C@@H](O[C@H]1[C@H](O)[C@H]2O)O[C@@H]9CSCC(=O)O)O[C@@H]8CSCC(=O)O)O[C@@H]7CSCC(=O)O)O[C@@H]6CSCC(=O)O)O[C@@H]5CSCC(=O)O)O[C@@H]4CSCC(=O)O)O[C@@H]3CSCC(=O)O` [Host 2] here?
A: The value was 16%.

Q: And the “Quantum yield Φ … of COU” value ([2]; 6.0 mM γ-CD thioether 2, [Na2SO4] 0.0 M, λ = 300 nm)?
A: The value was 3.8%.

Q: What about the “Quantum yield Φ … of COU” value ([2]; 6.0 mM γ-CD thioether 2, [Na2SO4] 1.5 M, λ = 300 nm) of the same molecule?
A: Its value is 13.0%.

Q: For `O=S(=O)(O)CCSC[C@H]1O[C@@H]2O[C@H]3[C@H](O)[C@@H](O)[C@@H](O[C@H]4[C@H](O)[C@@H](O)[C@@H](O[C@H]5[C@H](O)[C@@H](O)[C@@H](O[C@H]6[C@H](O)[C@@H](O)[C@@H](O[C@H]7[C@H](O)[C@@H](O)[C@@H](O[C@H]8[C@H](O)[C@@H](O)[C@@H](O[C@H]9[C@H](O)[C@@H](O)[C@@H](O[C@H]1[C@H](O)[C@H]2O)O[C@@H]9CSCCS(=O)(=O)O)O[C@@H]8CSCCS(=O)(=O)O)O[C@@H]7CSCCS(=O)(=O)O)O[C@@H]6CSCCS(=O)(=O)O)O[C@@H]5CSCCS(=O)(=O)O)O[C@@H]4CSCCS(=O)(=O)O)O[C@@H]3CSCCS(=O)(=O)O` [Host 3], which “Quantum yield Φ … of ANT” value [3] is on record?
A: The value was 29%.

Q: And the “Quantum yield Φ of the photodimerization of ACE” value [4]?
A: The value was 28^b %.

Q: With `CC(SC[C@H]1O[C@@H]2O[C@H]3[C@H](O)[C@@H](O)[C@@H](O[C@H]4[C@H](O)[C@@H](O)[C@@H](O[C@H]5[C@H](O)[C@@H](O)[C@@H](O[C@H]6[C@H](O)[C@@H](O)[C@@H](O[C@H]7[C@H](O)[C@@H](O)[C@@H](O[C@H]8[C@H](O)[C@@H](O)[C@@H](O[C@H]9[C@H](O)[C@@H](O)[C@@H](O[C@H]1[C@H](O)[C@H]2O)O[C@@H]9CSC(C)C(=O)O)O[C@@H]8CSC(C)C(=O)O)O[C@@H]7CSC(C)C(=O)O)O[C@@H]6CSC(C)C(=O)O)O[C@@H]5CSC(C)C(=O)O)O[C@@H]4CSC(C)C(=O)O)O[C@@H]3CSC(C)C(=O)O)C(=O)O` (stereo partly drawn) [Host 4] as the molecule, how does the “Quantum yield Φ … of ANT” value [3] read?
A: Its value is 33%.

Q: For `OCC(O)CSC[C@H]1O[C@@H]2O[C@H]3[C@H](O)[C@@H](O)[C@@H](O[C@H]4[C@H](O)[C@@H](O)[C@@H](O[C@H]5[C@H](O)[C@@H](O)[C@@H](O[C@H]6[C@H](O)[C@@H](O)[C@@H](O[C@H]7[C@H](O)[C@@H](O)[C@@H](O[C@H]8[C@H](O)[C@@H](O)[C@@H](O[C@H]9[C@H](O)[C@@H](O)[C@@H](O[C@H]1[C@H](O)[C@H]2O)O[C@@H]9CSCC(O)CO)O[C@@H]8CSCC(O)CO)O[C@@H]7CSCC(O)CO)O[C@@H]6CSCC(O)CO)O[C@@H]5CSCC(O)CO)O[C@@H]4CSCC(O)CO)O[C@@H]3CSCC(O)CO` (stereo partly drawn) [Host 5], which “Quantum yield Φ … of ANT” value [3] is on record?
A: The value was 25%.

Q: Which “Quantum yield Φ … of ANT” value [3] does the source give for `O=C(O)CCSC[C@H]1O[C@@H]2O[C@H]3[C@H](O)[C@@H](O)[C@@H](O[C@H]4[C@H](O)[C@@H](O)[C@@H](O[C@H]5[C@H](O)[C@@H](O)[C@@H](O[C@H]6[C@H](O)[C@@H](O)[C@@H](O[C@H]7[C@H](O)[C@@H](O)[C@@H](O[C@H]8[C@H](O)[C@@H](O)[C@@H](O[C@H]9[C@H](O)[C@@H](O)[C@@H](O[C@H]1[C@H](O)[C@H]2O)O[C@@H]9CSCCC(=O)O)O[C@@H]8CSCCC(=O)O)O[C@@H]7CSCCC(=O)O)O[C@@H]6CSCCC(=O)O)O[C@@H]5CSCCC(=O)O)O[C@@H]4CSCCC(=O)O)O[C@@H]3CSCCC(=O)O` [Host 6] here?
A: The value was 27%.

Q: And the “Quantum yield Φ of the photodimerization of ACE” value [4]?
A: Its value is 12^b %.

Q: With `COCCOCCOCCSC[C@H]1O[C@@H]2O[C@H]3[C@H](O)[C@@H](O)[C@@H](O[C@H]4[C@H](O)[C@@H](O)[C@@H](O[C@H]5[C@H](O)[C@@H](O)[C@@H](O[C@H]6[C@H](O)[C@@H](O)[C@@H](O[C@H]7[C@H](O)[C@@H](O)[C@@H](O[C@H]8[C@H](O)[C@@H](O)[C@@H](O[C@H]9[C@H](O)[C@@H](O)[C@@H](O[C@H]1[C@H](O)[C@H]2O)O[C@@H]9CSCCOCCOCCOC)O[C@@H]8CSCCOCCOCCOC)O[C@@H]7CSCCOCCOCCOC)O[C@@H]6CSCCOCCOCCOC)O[C@@H]5CSCCOCCOCCOC)O[C@@H]4CSCCOCCOCCOC)O[C@@H]3CSCCOCCOCCOC` [Host 7] as the molecule, how does the “Quantum yield Φ … of ANT” value [3] read?
A: Its value is 19%.
